Results are given in words; binding and its absence hold for the method and conditions named. Some binding calls cover weakened binding; strength is not graded here.
Columns and labels:
[1] = biological target: KDR on transiently KDR-transfected 293H cells (human) (UniProt P35968); assay: 125I-VEGF competition at 10, 0.3 and 0.03 µM
[2] = biological target: KDR on transiently KDR-transfected 293H cells (human) (UniProt P35968); assay: 125I-VEGF competition at 300, 30, 3 and 0.3 nM
[3] = biological target: human KDR-Fc fusion (R&D Systems #357-KD-050) (human) (UniProt P35968); assay: phage binding screen on KDR-Fc; class legend in paragraph 246

Amino acid sequences for entries named in this document (tags omitted). A change or cut given only in a name is not applied to a line headed by its entry. Residues count along the entry.
UniProt P35968: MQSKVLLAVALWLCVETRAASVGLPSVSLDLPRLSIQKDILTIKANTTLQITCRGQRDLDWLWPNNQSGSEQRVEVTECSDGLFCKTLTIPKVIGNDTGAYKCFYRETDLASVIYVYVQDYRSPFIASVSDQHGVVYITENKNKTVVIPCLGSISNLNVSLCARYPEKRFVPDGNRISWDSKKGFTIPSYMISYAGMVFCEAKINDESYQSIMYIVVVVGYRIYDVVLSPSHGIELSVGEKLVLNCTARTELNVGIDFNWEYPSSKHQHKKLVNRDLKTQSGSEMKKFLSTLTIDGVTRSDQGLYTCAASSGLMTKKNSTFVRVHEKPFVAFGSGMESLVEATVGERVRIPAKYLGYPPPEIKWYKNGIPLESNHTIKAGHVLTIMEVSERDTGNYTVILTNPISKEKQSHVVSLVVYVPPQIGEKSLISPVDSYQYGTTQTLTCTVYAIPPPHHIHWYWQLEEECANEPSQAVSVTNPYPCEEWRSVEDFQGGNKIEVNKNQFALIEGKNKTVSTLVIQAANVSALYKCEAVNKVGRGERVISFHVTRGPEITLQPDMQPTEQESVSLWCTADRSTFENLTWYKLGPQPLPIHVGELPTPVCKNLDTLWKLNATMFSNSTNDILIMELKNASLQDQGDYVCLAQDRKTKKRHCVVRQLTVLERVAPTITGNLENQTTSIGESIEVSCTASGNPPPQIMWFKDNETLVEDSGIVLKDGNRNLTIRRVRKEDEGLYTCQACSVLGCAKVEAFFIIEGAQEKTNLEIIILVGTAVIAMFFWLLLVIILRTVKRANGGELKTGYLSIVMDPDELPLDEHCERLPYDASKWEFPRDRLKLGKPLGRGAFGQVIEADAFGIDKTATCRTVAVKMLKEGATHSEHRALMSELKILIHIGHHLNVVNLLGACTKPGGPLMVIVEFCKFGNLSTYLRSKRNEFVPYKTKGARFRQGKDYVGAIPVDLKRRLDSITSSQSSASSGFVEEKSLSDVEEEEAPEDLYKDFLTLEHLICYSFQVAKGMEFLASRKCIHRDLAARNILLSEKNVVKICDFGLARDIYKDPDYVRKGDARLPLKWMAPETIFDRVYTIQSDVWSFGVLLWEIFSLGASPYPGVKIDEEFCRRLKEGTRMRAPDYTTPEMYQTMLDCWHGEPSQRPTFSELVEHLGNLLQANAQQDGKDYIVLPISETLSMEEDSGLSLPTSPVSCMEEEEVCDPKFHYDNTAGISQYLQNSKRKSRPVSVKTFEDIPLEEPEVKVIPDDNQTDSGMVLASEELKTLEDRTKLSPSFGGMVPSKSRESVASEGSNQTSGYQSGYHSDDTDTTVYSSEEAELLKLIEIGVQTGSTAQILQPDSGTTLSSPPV
KDR on transiently KDR-transfected 293H cells: residues 20-1356 of P35968
human KDR-Fc fusion (R&D Systems #357-KD-050): residues 20-764 of P35968

## AQDWYYDEILSMADQLRHAFLSGG [P13-D (…; SEQ ID NO:376)]
[1]
  binding: binds

## ERVTTCWPGEYGGVECYSVAY [SEQ ID NO:504 (monomeric peptide)]
[2]
  binding: binds

## WYWCQYHGVCPQS [phage isolate …]
[3]
  binding: binds

Reference: patent publication EP2014310A2 (Dyax Corporation, dated 2009)
